Our source for the binding values is PMC12563882.

Protein sequences, listed by entry. Tags and fused reporters are not part of them.
UniProt Q15717: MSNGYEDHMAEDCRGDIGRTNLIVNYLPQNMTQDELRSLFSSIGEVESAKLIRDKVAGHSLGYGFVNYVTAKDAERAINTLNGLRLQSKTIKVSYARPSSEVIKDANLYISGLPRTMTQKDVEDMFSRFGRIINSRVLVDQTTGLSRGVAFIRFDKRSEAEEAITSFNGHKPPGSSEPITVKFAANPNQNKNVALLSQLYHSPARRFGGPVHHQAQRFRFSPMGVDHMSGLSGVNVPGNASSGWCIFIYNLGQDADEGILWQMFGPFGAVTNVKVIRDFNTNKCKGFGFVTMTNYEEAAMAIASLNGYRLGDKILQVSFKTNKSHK
UniProt Q09161: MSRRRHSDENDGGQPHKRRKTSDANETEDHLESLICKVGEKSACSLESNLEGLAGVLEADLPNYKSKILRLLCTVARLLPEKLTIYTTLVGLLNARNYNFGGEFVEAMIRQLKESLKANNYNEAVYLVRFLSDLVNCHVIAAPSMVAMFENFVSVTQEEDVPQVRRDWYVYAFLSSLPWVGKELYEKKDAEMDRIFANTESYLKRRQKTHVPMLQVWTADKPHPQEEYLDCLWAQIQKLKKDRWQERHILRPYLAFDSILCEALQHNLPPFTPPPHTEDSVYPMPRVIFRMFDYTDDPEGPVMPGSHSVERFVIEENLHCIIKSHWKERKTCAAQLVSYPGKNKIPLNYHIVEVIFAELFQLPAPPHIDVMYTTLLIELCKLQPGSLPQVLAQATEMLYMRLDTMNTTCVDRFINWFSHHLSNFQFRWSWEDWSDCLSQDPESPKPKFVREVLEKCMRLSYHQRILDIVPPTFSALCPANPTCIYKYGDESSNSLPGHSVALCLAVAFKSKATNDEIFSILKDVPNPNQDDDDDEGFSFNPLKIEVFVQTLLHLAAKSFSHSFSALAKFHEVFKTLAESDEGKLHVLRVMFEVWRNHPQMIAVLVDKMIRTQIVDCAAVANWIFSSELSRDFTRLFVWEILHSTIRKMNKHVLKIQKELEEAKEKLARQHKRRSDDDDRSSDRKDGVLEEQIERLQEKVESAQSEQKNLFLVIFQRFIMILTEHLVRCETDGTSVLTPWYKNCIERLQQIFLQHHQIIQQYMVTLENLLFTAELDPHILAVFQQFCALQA
UniProt O75643: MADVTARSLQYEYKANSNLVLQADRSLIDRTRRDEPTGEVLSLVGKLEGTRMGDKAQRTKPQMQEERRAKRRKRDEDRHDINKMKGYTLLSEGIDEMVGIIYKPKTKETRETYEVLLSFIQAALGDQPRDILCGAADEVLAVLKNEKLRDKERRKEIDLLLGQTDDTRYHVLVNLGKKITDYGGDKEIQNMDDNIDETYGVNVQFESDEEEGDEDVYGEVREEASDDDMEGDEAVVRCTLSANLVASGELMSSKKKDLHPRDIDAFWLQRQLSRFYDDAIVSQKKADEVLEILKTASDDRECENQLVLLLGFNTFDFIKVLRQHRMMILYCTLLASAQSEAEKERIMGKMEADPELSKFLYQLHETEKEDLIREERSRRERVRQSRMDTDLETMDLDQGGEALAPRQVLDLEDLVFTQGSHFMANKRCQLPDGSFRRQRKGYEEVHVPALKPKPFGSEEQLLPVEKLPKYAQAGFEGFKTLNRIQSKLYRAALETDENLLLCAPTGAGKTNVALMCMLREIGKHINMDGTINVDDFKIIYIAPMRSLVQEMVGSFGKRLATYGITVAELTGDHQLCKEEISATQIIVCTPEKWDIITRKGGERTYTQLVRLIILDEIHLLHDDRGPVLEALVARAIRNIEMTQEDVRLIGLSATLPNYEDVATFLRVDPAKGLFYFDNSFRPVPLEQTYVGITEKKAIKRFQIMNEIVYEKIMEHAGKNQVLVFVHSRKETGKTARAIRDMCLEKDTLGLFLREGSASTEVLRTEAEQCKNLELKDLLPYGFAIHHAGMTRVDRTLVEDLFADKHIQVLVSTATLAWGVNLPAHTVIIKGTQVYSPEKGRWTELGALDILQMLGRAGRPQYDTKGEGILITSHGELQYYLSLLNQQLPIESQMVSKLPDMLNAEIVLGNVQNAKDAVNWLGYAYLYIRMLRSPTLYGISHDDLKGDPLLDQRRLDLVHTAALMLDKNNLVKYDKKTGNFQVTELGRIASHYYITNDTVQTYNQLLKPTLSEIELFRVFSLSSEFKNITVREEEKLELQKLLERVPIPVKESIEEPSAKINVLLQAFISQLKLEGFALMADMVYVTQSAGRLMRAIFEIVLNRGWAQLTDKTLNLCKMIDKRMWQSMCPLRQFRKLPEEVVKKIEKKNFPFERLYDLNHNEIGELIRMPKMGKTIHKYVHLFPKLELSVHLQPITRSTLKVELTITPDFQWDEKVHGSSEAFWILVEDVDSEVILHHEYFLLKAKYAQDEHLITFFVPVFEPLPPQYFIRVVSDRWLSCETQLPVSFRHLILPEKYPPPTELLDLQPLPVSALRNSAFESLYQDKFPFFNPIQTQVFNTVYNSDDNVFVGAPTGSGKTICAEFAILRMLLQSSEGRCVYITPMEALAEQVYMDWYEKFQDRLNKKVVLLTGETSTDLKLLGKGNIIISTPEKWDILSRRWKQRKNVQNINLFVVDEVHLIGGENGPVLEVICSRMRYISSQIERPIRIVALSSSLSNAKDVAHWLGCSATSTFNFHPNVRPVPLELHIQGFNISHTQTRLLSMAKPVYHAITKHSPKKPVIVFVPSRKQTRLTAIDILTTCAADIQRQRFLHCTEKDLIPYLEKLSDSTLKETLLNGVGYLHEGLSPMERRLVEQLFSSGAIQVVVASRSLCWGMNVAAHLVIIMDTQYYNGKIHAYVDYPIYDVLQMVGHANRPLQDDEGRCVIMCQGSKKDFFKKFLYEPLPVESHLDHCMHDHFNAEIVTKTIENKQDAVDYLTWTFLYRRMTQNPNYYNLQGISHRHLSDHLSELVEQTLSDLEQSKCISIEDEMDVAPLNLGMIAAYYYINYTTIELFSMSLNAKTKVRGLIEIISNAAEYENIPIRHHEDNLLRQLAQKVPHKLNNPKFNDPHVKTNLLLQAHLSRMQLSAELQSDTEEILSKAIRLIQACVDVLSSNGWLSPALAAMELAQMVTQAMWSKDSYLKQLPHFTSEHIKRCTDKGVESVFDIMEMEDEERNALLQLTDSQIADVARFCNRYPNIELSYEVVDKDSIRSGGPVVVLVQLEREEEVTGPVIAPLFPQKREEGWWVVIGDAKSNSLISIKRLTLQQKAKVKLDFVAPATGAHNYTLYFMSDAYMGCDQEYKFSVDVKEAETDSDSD
UniProt Q96A72: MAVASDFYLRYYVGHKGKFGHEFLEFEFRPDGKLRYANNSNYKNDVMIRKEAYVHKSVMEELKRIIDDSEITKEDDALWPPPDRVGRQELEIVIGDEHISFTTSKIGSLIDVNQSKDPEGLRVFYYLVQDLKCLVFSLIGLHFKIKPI

No constants are given. Whether binding was seen depends on the method and setting. Binding seen in cells or lysates may run through a third protein. A yes stands for co-enrichment or nearness to the bait. Other partners may have been found. Where a sequence is shown, tags or fusion partners need not be part of it.

T1: myc-BirA*-SAP18 fusion protein (UniProt O00422)
T1 sequence: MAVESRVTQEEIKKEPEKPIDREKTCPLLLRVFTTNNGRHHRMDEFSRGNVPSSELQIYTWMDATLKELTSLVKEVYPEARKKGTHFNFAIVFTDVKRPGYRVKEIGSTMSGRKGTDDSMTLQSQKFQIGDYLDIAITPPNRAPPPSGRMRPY

B1: PRP19 complex-associated factor SNW1 (protein, UniProt Q13573 1-536)
chain: MALTSFLPAPTQLSQDQLEAEEKARSQRSRQTSLVSSRREPPPYGYRKGWIPRLLEDFGDGGAFPEIHVAQYPLDMGRKKKMSNALAIQVDSEGKIKYDAIARQGQSKDKVIYSKYTDLVPKEVMNADDPDLQRPDEEAIKEITEKTRVALEKSVSQKVAAAMPVRAADKLAPAQYIRYTPSQQGVAFNSGAKQRVIRMVEMQKDPMEPPRFKINKKIPRGPPSPPAPVMHSPSRKMTVKEQQEWKIPPCISNWKNAKGYTIPLDKRLAADGRGLQTVHINENFAKLAEALYIADRKAREAVEMRAQVERKMAQKEKEKHEEKLREMAQKARERRAGIKTHVEKEDGEARERDEIRHDRRKERQHDRNLSRAAPDKRSKLQRNENRDISEVIALGVPNPRTSNEVQYDQRLFNQSKGMDSGFAGGEDEIYNVYDQAWRGGKDMAQSIYRPSKNLDKDMYGDDLEARIKTNRFVPDKEFSGSDRRQRGREGPVQFEEDPFGLDKFLEEAKQHGGSKRPSDSSRPKEHEHEGKKRRKE
B2: SRSF7 (protein, UniProt Q16629 1-238)
chain: MSRYGRYGGETKVYVGNLGTGAGKGELERAFSYYGPLRTVWIARNPPGFAFVEFEDPRDAEDAVRGLDGKVICGSRVRVELSTGMPRRSRFDRPPARRPFDPNDRCYECGEKGHYAYDCHRYSRRRRSRSRSRSHSRSRGRRYSRSRSRSRGRRSRSASPRRSRSISLRRSRSASLRRSRSGSIKGSRYFQSPSRSRSRSRSISRPRSSRSKSRSPSPKRSRSPSGSPRRSASPERMD
B3: SRSF6 (protein, UniProt Q13247 1-344)
chain: MPRVYIGRLSYNVREKDIQRFFSGYGRLLEVDLKNGYGFVEFEDSRDADDAVYELNGKELCGERVIVEHARGPRRDRDGYSYGSRSGGGGYSSRRTSGRDKYGPPVRTEYRLIVENLSSRCSWQDLKDFMRQAGEVTYADAHKERTNEGVIEFRSYSDMKRALDKLDGTEINGRNIRLIEDKPRTSHRRSYSGSRSRSRSRRRSRSRSRRSSRSRSRSISKSRSRSRSRSKGRSRSRSKGRKSRSKSKSKPKSDRGSHSHSRSRSKDEYEKSRSRSRSRSPKENGKGDIKSKSRSRSQSRSNSPLPVPPSKARSVSPPPKRATSRSRSRSRSKSRSRSRSSSRD
B4: SRSF5 (protein, UniProt Q13243 1-272)
chain: MSGCRVFIGRLNPAAREKDVERFFKGYGRIRDIDLKRGFGFVEFEDPRDADDAVYELDGKELCSERVTIEHARARSRGGRGRGRYSDRFSSRRPRNDRRNAPPVRTENRLIVENLSSRVSWQDLKDFMRQAGEVTFADAHRPKLNEGVVEFASYGDLKNAIEKLSGKEINGRKIKLIEGSKRHSRSRSRSRSRTRSSSRSRSRSRSRSRKSYSRSRSRSRSRSRSKSRSVSRSPVPEKSQKRGSSSRSKSPASVDRQRSRSRSRSRSVDSGN
B5: RNPS1 (protein, UniProt Q15287 1-305)
chain: MDLSGVKKKSLLGVKENNKKSSTRAPSPTKRKDRSDEKSKDRSKDKGATKESSEKDRGRDKTRKRRSASSGSSSTRSRSSSTSSSGSSTSTGSSSGSSSSSASSRSGSSSTSRSSSSSSSSGSPSPSRRRHDNRRRSRSKSKPPKRDEKERKRRSPSPKPTKVHIGRLTRNVTKDHIMEIFSTYGKIKMIDMPVERMHPHLSKGYAYVEFENPDEAEKALKHMDGGQIDGQEITATAVLAPWPRPPPRRFSPPRRMLPPPPMWRRSPPRMRRRSRSPRRRSPVRRRSRSPGRRRHRSRSSSNSSR

The target of the test is T1, myc-BirA*-SAP18 fusion protein. The test can be described thus: proximity labelling + affinity purification with mass spectrometry; double-stable Flp-In-293 cells with BirA*-SAP18 and the MINX-GG-6MS2 reporter, transfected with FLAG-MS2cp; 2 ug/mL tetracycline 48 h, 50 uM biotin 24 h; RNP complex on the reporter RNA captured on anti-FLAG M2 magnetic beads in RIP buffer (25 mM Tris pH 8.0, 150 mM NaCl, 1 mM EDTA, 1% deoxycholate, 5% glycerol), 4 °C; enriched, biotinylated proteins identified by mass spectrometry against a control IP without FLAG-MS2cp.
For ELAVL1 (from UniProt Q15717 1-326), the binding result is reported as “binds”.

“cap-binding complex protein NCBP1 (from UniProt Q09161 1-790)”: the binding result is given as “binds”.

For the molecule SNRNP200 (from UniProt O75643 1-2136), the binding entry is on record as “binds”.

Regarding MAGOHB (from UniProt Q96A72 1-148), the binding entry is listed as “binds”.

For B1, the binding result is listed as “binds”.

Turning to B2, the binding result is reported as “binds”.

On to B3, for which the binding result was “binds”.

On to B4, for which the binding entry is “binds”.

Regarding B5, the binding result was “binds”.
